Laboratory results from patent EP0212822A1, “A composition containing a plant growth regulator and an alkanol and a method of using the same” (ICI AMERICAS INC., priority 1985, dated 1987).

How the values were obtained:
birch trees = experiment: Movement of tracer dyes after injection into whole trees (dye spot area); assay type: in vivo; conditions: for mobility in trees: whole trees
[1] = system: Ash (Fraxinus excelsior) and Birch (Betula pendula); experiment: Distribution in the trunk ten days after injection (GLC of sawdust extracts); assay type: in vivo; conditions: ten days after treatment, 20 g/l (20 ml per hole) or 4 g/l (100 ml per hole) in methanol
[2] = 0.1% solution in methanol, 75ml injection volume, mean of five birch trees

Structure (SMILES) | distance from the injection point of the largest dye spot area (birch trees; [2]) [metres] | movement from the injection point (birch trees; [2]) | mobility in trees (birch trees) | distribution within the tree ([1]; listed as (II)) | distribution within the tree ([1]; listed as II)
CC1=CC(=C(c2ccc(N)c(S(=O)(=O)O)c2)c2ccc(N)c(S(=O)(=O)O)c2)C=C(S(=O)(=O)O)C1=N [acid fuschin] | 2 | above 2 metres | highly mobile | – | –
CC(C)(C)[C@@H](O)[C@@H](Cc1ccc(Cl)cc1)n1cncn1 (racemic) [Formula (II), (2RS,3RS)-1-(4-chlorophenyl-4,4-dimethyl-2-1,2,4-triazol-1-yl)pentan-3-ol] | – | – | – | remained close to the point of injection and had not moved substantially to the crowns of the trees | distributed close to the injection point
CN(C)c1ccc2nc3ccc(=[N+](C)C)cc-3sc2c1 [methylene blue] | – | ≤ 0.5 metres | relatively immobile | – | –
